Measurements reported in PubChem BioAssay AID504744 (Drosophila RNAi Screening Center, 2011).

Aim: 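Find genes whose loss alters insulin-driven dAkt phosphorylation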 (primary screen)
System: Drosophila Kc167 cells
Reagent: long dsRNA against Drosophila genes, 250 ng dsRNA per well of a 384-well plate
Duration: 3 days of knock-down, then overnight serum-free starvation before stimulation
Conditions: bovine insulin at 387 nM for 10 minutes after 12 h without serum
Measurement: 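In-cell antibody fluorescence for phospho-dAkt in each well over DNA-dye signal, with log2 residuals expressed as z-scores adjusted for cell count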
Call rule: 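Under insulin, a gene counts as a hit if the average z-score of two replicates lies above 2.5 or below -2.5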
In all, the deposit lists about 23,000 reagents; this is a random part of those with a known target gene and a result. Over the whole deposit, 98 (0.43%) got an active call. 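Only hit calls are given; the phospho-dAkt signals, z-scores and hit direction were not deposited.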 Names joined by + are all predicted targets of the reagent.

For Gyf (GeneID 43842) [DRSC17202], what does the deposit list?
call: inactive

What is on record for CG15153 (GeneID 35080) [DRSC02454]?
call: inactive

Which result is listed for CG7443 (GeneID 40992) [DRSC16244]?
call: inactive

What did the screen give for CG3156 (GeneID 30994) [DRSC18503]?
call: inactive

How did the screen score eya (GeneID 33916) [DRSC03510]?
call: inactive

What is on record for lin-28 (GeneID 38639) [DRSC10261]?
call: inactive

With CG4607 (GeneID 31653) [DRSC18375], how do the results read?
call: inactive

Which result is listed for Su(P) (GeneID 39856) [DRSC11291]?
call: inactive

Which result is listed for Rsf1 (GeneID 34370) [DRSC03423]?
call: inactive

What is on record for Rsf1 (GeneID 34370) [DRSC21953]?
call: inactive

What is on record for Mrp4 (GeneID 41387) [DRSC14931]?
call: inactive

For Zif (GeneID 40795) [DRSC12514], how do the results read?
call: inactive

Which result is listed for Rat1 (GeneID 33964) [DRSC02044]?
call: inactive

For mRpL41 (GeneID 36688) [DRSC06257], how do the results read?
call: inactive

How did the screen score CG8858 (GeneID 36319) [DRSC07290]?
call: inactive

What did the screen give for Lrt (GeneID 37342) [DRSC06045]?
call: active

Which result is listed for CG12902 (GeneID 36092) [DRSC06217]?
call: inactive

For VGlut (GeneID 33427) [DRSC00733], how do the results read?
call: inactive

How did the screen score VGlut (GeneID 33427) [DRSC21821]?
call: inactive

What is on record for CG7548 (GeneID 38843) [DRSC10874]?
call: inactive

What did the screen give for Frl (GeneID 39561) [DRSC09300]?
call: inactive

With Frl (GeneID 39561) [DRSC10027], what was measured?
call: inactive

For Frl (GeneID 39561) [DRSC10716], what does the deposit list?
call: inactive

With SKIP (GeneID 42601) [DRSC14713], how do the results read?
call: inactive

With SKIP (GeneID 42601) [DRSC14714], what was measured?
call: inactive

With SKIP (GeneID 42601) [DRSC15864], what does the deposit list?
call: inactive

With SKIP (GeneID 42601) [DRSC16195], how do the results read?
call: inactive

What did the screen give for SKIP (GeneID 42601) [DRSC16196]?
call: inactive

For Toll-6 (GeneID 39663) [DRSC11304], what does the deposit list?
call: inactive

Which result is listed for CG4619 (GeneID 34321) [DRSC02764]?
call: inactive

For CG14100 (GeneID 40132) [DRSC10101], how do the results read?
call: inactive

What did the screen give for Dop2R (GeneID 33007) [DRSC20683]?
call: inactive

Which result is listed for Dop2R (GeneID 33007) [DRSC20686]?
call: inactive

For CG4377 (GeneID 37489) [DRSC04467], what was measured?
call: inactive

Records above whose gene name starts with V or v (2):
VGlut (GeneID 33427) [DRSC00733] — call: inactive
VGlut (GeneID 33427) [DRSC21821] — call: inactive

Continued.
What did the screen give for CG13640 (GeneID 42967) [DRSC14639]?
call: inactive

Which result is listed for Tsp42Eb + CG30160 [DRSC04961]?
call: inactive

What is on record for Tsp42Eb + CG30160 [DRSC06791]?
call: inactive

For CG42748 (GeneID 35442) [DRSC03712], what was measured?
call: inactive

What is on record for CG42748 (GeneID 35442) [DRSC03713]?
call: inactive

With CG42748 (GeneID 35442) [DRSC03734], how do the results read?
call: inactive

What is on record for CG7685 (GeneID 42220) [DRSC16285]?
call: inactive

Which result is listed for Lcp65Af (GeneID 45017) [DRSC11213]?
call: inactive

How did the screen score CG7115 (GeneID 34069) [DRSC02000]?
call: inactive

How did the screen score betaggt-I (GeneID 33704) [DRSC03494]?
call: inactive

Which result is listed for Ptpmeg (GeneID 38059) [DRSC08684]?
call: inactive

What is on record for Pgcl (GeneID 30984) [DRSC18815]?
call: inactive

With CG31787 (GeneID 318941) [DRSC01632], what does the deposit list?
call: inactive

With Hex-t2 (GeneID 43191) [DRSC22517], how do the results read?
call: inactive

With Map205 (GeneID 43765) [DRSC16732], what does the deposit list?
call: inactive

What is on record for Rab39 (GeneID 31684) [DRSC17827]?
call: inactive

With RecQ4 (GeneID 53438) [DRSC11265], what was measured?
call: inactive

Which result is listed for CG32301 (GeneID 38285) [DRSC08613]?
call: inactive

For CG33136 (GeneID 318894) [DRSC05744], what was measured?
call: inactive

Which result is listed for CR33283 (GeneID 10178863) [DRSC22918]?
call: inactive

Which result is listed for Tmlh (GeneID 42421) [DRSC15563]?
call: inactive

With Lip3 (GeneID 41643) [DRSC16727], what was measured?
call: inactive

What did the screen give for TfIIA-L (GeneID 43284) [DRSC16882]?
call: inactive
